This series is described as follows: general procedure: solution-phase peptide synthesis; DCC/HOBt. The settings on record: coupling step.

“(m)Lys(Boc)-Asp(Bu^t)-Val-Tyr(Bu^t)-OBu^t (step 2)” registered a step yield of 76%.
On to “[(m)Lys(Boc)-(D)-Arg(Mtr)NH2 ]-Asp(Bu^t)-Val-Tyr(Bu^t)-OBu^t”, for which the step yield worked out at 90%.
